Binding data for two molecules are collected here from patent US20100280227A1.

Protein sequences, listed by entry. Tags and fused reporters are not part of them. Lines headed by an entry give the natural chain unless they say otherwise; changes in a name come on top.
UniProt Q96RJ3: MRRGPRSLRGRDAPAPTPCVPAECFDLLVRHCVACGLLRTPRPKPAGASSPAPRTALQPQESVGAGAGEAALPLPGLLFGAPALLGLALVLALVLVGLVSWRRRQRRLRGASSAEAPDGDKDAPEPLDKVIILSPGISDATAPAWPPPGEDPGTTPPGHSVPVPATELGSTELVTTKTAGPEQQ

These are yes or no findings as the source states them, for the method shown. Some binding calls cover weakened binding; strength is not graded here.

For experiment [1], the target named is T1, mouse BR3 (form in the mapping assay not stated) (mouse) (UniProt Q9D8D0).
T1 sequence (looked up): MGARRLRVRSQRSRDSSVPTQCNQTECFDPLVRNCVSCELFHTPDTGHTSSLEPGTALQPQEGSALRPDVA
As to the kind of experiment: competition ELISA on murine BR3 against biotinylated V3-1m. Background: In an ELISA, binding on a coated surface is turned into a signal by an enzyme label.

For experiment [2], the target named is T1, mouse BR3 (form in the mapping assay not stated) (mouse). As to the kind of experiment: epitope mapping by competition (FIG. 22).
For experiment [3], the target named is human BR3 extracellular domain (human) (UniProt Q96RJ3). Briefly: SPR with Fab.
For experiment [4] the target is unchanged. As to the kind of experiment: SPR with expressed Fab.

B1: V3-1m (antibody, mouse IgG2a, V domains shown)
VH: EVQLVESGGGLVQPGGSLRLSCAASGFTISSNSIHWVRQAPGKGLEWVAWITPSDGNTDYADSVKGRFTISADTSKNTAYLQMNSLRAEDTAVYYCARRVCYNRLGVCAGGMDYWGQGTLVTVSS
VL: DIQMTQSPSSLSASVGDRVTITCRASQDVSTAVAWYQQKPGKAPKLLIYSASFLYSGVPSRFSGSGSGTDFTLTISSLQPEDFATYYCQQSRITPPTFGQGTKVEIKR
Regarding B1, the binding entry in experiment [1] and in experiment [2] was “binds” each time.

B2: Hu2.1-30 Fab (Fab, V domains shown)
VH: EVQLVESGGGLVQPGGSLRLSCAASGDSITRGYWNWVRQAPGKGLEWVGYINYSGTTYYNPSLKSRFTISRDTSKNTFYLQMNSLRAEDTAVYYCANLNYYGAMDYWGQGTLVTVSS
VL: DIQMTQSPSSLSASVGDRVTITCRASESVDDYGISFMHWYQQKPGKAPKLLIYRASDLESGVPSRFSGSGSGTDFTLTISSLQPEDFATYYCQQTSKDPWTFGQGTKVEIKR
Regarding B2, the binding entry in experiment [3] and in experiment [4] was “binds” each time.
